Laboratory results as given in patent publication US9745346B2, “Antimicrobial peptides and their application” (INFINITEC ACTIVOS S.L., priority 2014, dated 2017).
Part of at least one peptide drawing is inferred or uncertain, most often the ends. *1 amine or outer side, *2 acyl side, *3 side chain or, on linkers, in order; H or OH if unused. Where a SMILES comes first, the peptide text is derived from it. The star is where a group is joined. NH(CH2)3(OCH2CH2)2O(CH2)3NH = C(CN[*:1])COCCOCCOCCCN[*:2]; Palmitoyl = CCCCCCCCCCCCCCCC(=O)*

System: Vibrio parahemolyticus
Test: Minimum inhibitory concentration (MIC), Gram negative bacteria
Type: cell-based
Conditions: 1×10^5 CFU/ml, 21 h at 37° C., optical density at 620 nm

SMILES: CCCCCCCCCCCCCCCC(=O)N[C@@H](CCCCN)C(=O)N[C@@H](C)C(=O)N[C@@H](CCC(N)=O)C(=O)N[C@@H](CCCCN)C(=O)N[C@@H](CCCNC(=N)N)C(=O)N[C@@H](Cc1ccccc1)C(=O)NCCCOCCOCCOCCCN [Example 3, Palm-KAQKRF-NH—(CH2)3—(OCH2CH2)3—CH2—NH2] (Palmitoyl-KAQKRF-{NH(CH2)3(OCH2CH2)2O(CH2)3NH})
- Gram negative bacteria MIC, Vibrio parahemolyticus: 6.2 µg/mL

SMILES: CC(=O)N[C@@H](CCCCN)C(=O)N[C@@H](C)C(=O)N[C@@H](CCC(N)=O)C(=O)N[C@@H](CCCCN)C(=O)N[C@@H](CCCNC(=N)N)C(=O)N[C@@H](Cc1ccccc1)C(N)=O [Example 1, Ac-KAQKRF-NH2] (Ac-KAQKRF-NH2)
- Gram negative bacteria MIC, Vibrio parahemolyticus: 9.4 µg/mL

SMILES: CCCCCCCCCCCCCCCC(=O)N[C@@H](CCCCN)C(=O)N[C@@H](C)C(=O)N[C@@H](CCC(N)=O)C(=O)N[C@@H](CCCCN)C(=O)N[C@@H](CCCNC(=N)N)C(=O)N[C@@H](Cc1ccccc1)C(N)=O [Example 2, Palm-KAQKRF-NH2] (Palmitoyl-KAQKRF-NH2)
- Gram negative bacteria MIC, Vibrio parahemolyticus: 6.0 µg/mL
